# Laboratory results from the supplement of paper PMC5949888.
# Most values lie at the floor of the assay. Slopes are relative: functional sequences can read slightly below zero.
# Test system: Saccharomyces cerevisiae PS128 hsf1 delta, HSF1(1-493) fusion
# Assay: growth estimate (transactivation domain function in HSF1 fusion, heat-shock survival) (a.u. (slope of normalised read count over time)); higher = stronger growth at 37°C, i.e. more transactivation activity
# Conditions: library: random library
row,Substance,growth estimate
1,GAASTSKRR,< -0.25
2,PGKLSGKGQQYL,< -0.25
3,ISGSYSKKLG,-0.1
4,RDYSQLPWEGPSHTLA,-0.242
5,LPCHFAERLRAKSPTTKSSS,< -0.25
6,GRNSPTDRSIRWNELWSVCN,< -0.25
7,WEKKCRV,< -0.25
8,LRVR,-0.245
9,FYVSLFRRFIRALSLLGNMS,< -0.25
10,KPWNAGICYTRYLSVF,< -0.25
11,KTNEMESFYTGNGLT,-0.243
12,QPCFGARVLRLRVTLYDSRT,< -0.25
13,VSSPFSVWDNSVPG,< -0.25
14,ASQRARVWAA,< -0.25
15,ALAGDARWNARLLTAGHKKA,< -0.25
16,KSMLTASYRK,< -0.25
17,NRGLGALNTLAYSHMGINRI,< -0.25
18,LIVVTLPSSTHRVGCSLSE,< -0.25
19,SVSEDVWH,< -0.25
20,VGLCIAVRTAGGGTGIQCSR,< -0.25
21,LELRYWGER,< -0.25
22,FRYNARQWCSPGVPKRLHVG,< -0.25
23,QPLSNSWVTELTSRVIQVLR,< -0.25
24,AGSGMSRLPNKVGIIERGIR,< -0.25
25,HRVAVQCHPEAATCIRPTAR,< -0.25
26,SDGQPAA,< -0.25
27,QKAREVHGRGPKSSLRLSRL,< -0.25

# Part of the list above in another layout.
row	Substance	growth estimate
13	VSSPFSVWDNSVPG	< -0.25
14	ASQRARVWAA	< -0.25
15	ALAGDARWNARLLTAGHKKA	< -0.25

# (listing goes on)

row,Substance,growth estimate
1,VYHSASDARSVRGTLQFMIK,< -0.25
2,MHKFARLA,< -0.25
3,GNIMRVTAYG,< -0.25
4,PPCSPH,< -0.25
5,LSTEQLCRQDRYH,< -0.25
6,NTQKP,< -0.25
7,SSVVLGDGLFIGDT,< -0.25
8,NFHHSLPQTTGCPVSGIYVG,-0.246
9,RPRASRPRCPVLGSYRVAIV,< -0.25
10,VGMTTLLCQPPIGNH,< -0.25
11,VLLKKYGPVVCGIESPSAAF,< -0.25
12,DHKWRTSLQEDASLHRSGSA,< -0.25
13,RRVPRSTSYNVPF,< -0.25
14,GGVRQFPKARNIVSCLKAK,< -0.25
15,YVGSRA,< -0.25
16,YEGLPID,< -0.25
17,LVDLSVRGQLGRKKP,< -0.25
18,AGVRIAGCSHESDPWVPWPD,-0.135
19,YFDVGIHMAH,< -0.25
20,VYGPTRGRPRGSWPNLYTAV,< -0.25
21,TYSSADRLGCTSSIGVT,< -0.25
22,PPLGYTASETGCTYGMTLVL,< -0.25
23,VSHGGSTARGKADVAHVDVS,< -0.25
24,RAITLVPAKTSAL,< -0.25
25,SRILYGVNHGRRTDGLETDP,< -0.25
26,TLLWLVCTGNSTLTAVVRGS,< -0.25
27,GLVMICACSTHACAIIINSA,< -0.25

row,Substance,growth estimate
1,CKC,-0.243
2,IVSSLQ,< -0.25
3,SRCDLFNTLAVRIGFLLVCG,< -0.25
4,WRATLAPVCD,< -0.25
5,FTTGEYWSRLSYSNAQQRQR,< -0.25
6,ARKSGTMSPGVEYSTAT,< -0.25
7,HFRGPDTRTG,< -0.25
8,VYPARHGSGGRRTAVPGPLI,< -0.25
9,MPTGESMGQHRG,-0.246
10,IGCLLSAKFWAASELLQSKS,< -0.25
11,CILSVLV,< -0.25
12,GHADLLKQLS,< -0.25
13,TWNRMVCLSTQRGTAC,< -0.25
14,TIKRVRVPGLHKSSVVLSTL,< -0.25
15,YPQSNLEKGVVISSSLTKLP,< -0.25
16,PAMYSAWS,< -0.25
17,APGLLL,< -0.25
18,FGSLEASDMV,-0.243
19,VVRRMAQIGVI,< -0.25
20,FTKVRGRLRVTCQ,< -0.25
21,FDCILRYSRYKDPQSTWGPA,< -0.25
22,HKSRNRRRPIGRKPRNLRKK,< -0.25
23,TEVPAPDLGRCLKGDGYI,< -0.25
24,LGITDSEFRCIPCA,< -0.25
25,FLLSRIGQSGRFTRVRAKC,< -0.25
26,GSPGRSTQRLSDRAKATRPT,< -0.25
